# No constants are given. Whether binding was seen depends on the method and setting. In cells and extracts the contact can be indirect. Some binding calls cover weakened binding; strength is not graded here. Sequences can lack the tags named with a protein.
# B1: Cox2p, subunit two of the cytochrome c oxidase complex (protein, UniProt P00410 16-251)
# chain: DVPTPYACYFQDSATPNQEGILELHDNIMFYLLVILGLVSWMLYTIVMTYSKNPIAYKYIKHGQTIEVIWTIFPAVILLIIAFPSFILLYLCDEVISPAMTIKAIGYQWYWKYEYSDFINDSGETVEFESYVIPDELLEEGQLRLLDTDTSMVVPVDTHIRFVVTAADVIHDFAIPSLGIKVDATPGRLNQVSALIQREGVFYGACSELCGTGHANMPIKIEAVSLPKFLEWLNEQ
# Target: T1, Dmo2p with its C-terminal fused to protein C epitope followed by polyhistidine (Dmo2p-CH) (S. cerevisiae) (UniProt Q12082)
# T1 sequence: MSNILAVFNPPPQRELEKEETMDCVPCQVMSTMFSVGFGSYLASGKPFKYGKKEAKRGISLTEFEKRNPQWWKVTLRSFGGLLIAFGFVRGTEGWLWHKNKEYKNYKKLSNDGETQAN
# Assay: co-IP
binder,measurement,value
B1,binding,binds
